{"source": "patent US20260108600A1", "about": "“METHODS AND COMPOSITIONS RELATING TO IMPROVED IONIC LIQUID ADJUVANTS” (PRESIDENT AND FELLOWS OF HARVARD COLLEGE, priority 2022, published 2026)", "system": "LPO expression", "assay": "LPO expression with or without deferoxamine (ferroptosis indication)", "type": "cell-based", "conditions": "ChoSorb-treated", "note": "At least one structure is not confirmed: it was looked up by name or label, or the drawing left a doubt.", "data": [{"compound": "CC(=O)N(O)CCCCCNC(=O)CCC(=O)N(O)CCCCCNC(=O)CCC(=O)N(O)CCCCCN", "note": "[DFO, deferoxamine, reference compound]", "values": [{"measurement": "reversal of cell death", "value": "did not completely reverse cell death"}]}]}
